# Test results as given in PubChem BioAssay AID445 (National Center for Advancing Translational Sciences (NCATS), 2006).
# This is one part of the list. The main result of the screen is listed elsewhere. These columns were measured beside it and carry no call. The list favours compounds with an active or inconclusive main result. Potencies come from curve fits of mixed quality, noted in brackets.
# Assay: IkB Signaling
# Details: ABC-DLBCL IkBa-CBG/CBR dual luciferase ratio (green luciferase fused to IkBa over red control in OCI-Ly3 lymphoma cells), 4 h
# Method in brief: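 Curves were fitted separately to fusion (green), unfused (red) and ratio luminescence, then classed by r2, magnitude and activity. Cells: OCI-Ly3, 4 h compound plus doxycycline at 37C; 10 uM MG-132 defined full response.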
# [1] = measured here: control luc red channel unless noted
smiles,measurement,setting,value
CC(C)c1ccc(C2Sc3ccccc3NC3=C2C(=O)c2ccccc23)cc1 (stereo unspecified),AC50,[1],"3.98 µM [falling, full curve]"
COC(=O)COc1ccc(C2C(C(=O)OC)=C(C)NC3=C2C(=O)c2ccccc23)cc1OC (stereo unspecified),AC50,[1],"10 µM [falling, partial curve]"
COc1ccc(CCNC(=O)Cc2c(C)c3cc4c(C(C)(C)C)coc4c(C)c3oc2=O)cc1OC,AC50,[1],"12.6 µM [falling, partial curve]"
Cc1ccc2c(c1)cc1c(=O)n(Cc3cccc(Cl)c3)nc(C)n12,AC50,[1],"3.98 µM [falling, partial curve]"
O=C(CSC1=NCCS1)Nc1nc(-c2ccccc2)cs1,AC50,[1],"15.8 µM [falling, partial curve]"
O=C(Nc1cc(Cl)ccc1Cl)c1cc(S(=O)(=O)NCCc2ccccc2)ccc1F,AC50,[1],"15.8 µM [falling, partial curve]"
Cc1ccc(C(=O)N(Cc2ccco2)Cc2sccc2C)cc1,AC50,[1],"25.1 µM [falling, partial curve]"
O=C(COc1ccccc1F)Nc1ccccc1C(=O)OCc1cc(=O)n2nc(C3CC3)sc2n1,AC50,[1],"3.98 µM [falling, full curve]"
O=C(NCc1ccc(Cl)cc1)c1cc2c(s1)-c1ccccc1SC2,AC50,[1],"10 µM [falling, partial curve]"
COc1ccc(C(=O)Nc2cccc(-c3cn4ccsc4n3)c2)cc1OC,AC50,[1],"25.1 µM [falling, partial curve]"
CCCN1CCN(CCCNC(=O)c2ccc3c(c2)sc2nc(-c4ccc(OC)cc4)cn23)CC1,AC50,[1],"20 µM [falling, partial curve]"
Cc1ccccc1Cn1c(CN2CCC(C(=O)NCc3cccnc3)CC2)cc2ccccc21,AC50,[1],"15.8 µM [falling, single point]"
CCOC(=O)C1CCN(C(=O)Cn2nc(C)n3c(cc4sccc43)c2=O)CC1,AC50,[1],"0.00794 µM [falling, full curve, poor fit]"
Cn1c(SCC(=O)N2CCOCC2)ncc(C(=O)Nc2ccccc2)c1=O,AC50,measured here: IkB-luc green channel,"31.6 µM [rising, partial curve]"
same,AC50,measured here: control luc red channel,"15.8 µM [rising, partial curve]"
COc1ccccc1-n1c(CNC(=O)c2ccco2)nnc1SCC(=O)Nc1cc(C)ccc1C,AC50,[1],"0.631 µM [falling, full curve]"
CCc1ccc(NC(=O)CCn2c(-c3ccc(OC)cc3)cc(C(C)=O)c2C)cc1,AC50,[1],"1.26 µM [rising, full curve]"
c1ccc(-c2cc3c(N4CCOCC4)ncnc3s2)cc1,AC50,[1],"10 µM [falling, partial curve]"
CC1CCN(c2nc3c(S(=O)(=O)c4ccccc4)nnn3c3ccc(Cl)cc23)CC1,AC50,[1],"12.6 µM [falling, partial curve]"
COc1cccc(Cc2nc3ccccc3nc2SCC(=O)NCCc2ccccc2)c1,AC50,[1],"12.6 µM [falling, partial curve]"
COc1ccc(C2C=C(c3ccc(F)cc3)Nc3nc(-c4ccc(Cl)cc4)nn32)cc1 (stereo unspecified),AC50,[1],"20 µM [falling, single point]"
Cc1ccc(-c2nc3ccccc3[nH]2)cc1NC(=O)COc1ccccc1[N+](=O)[O-],AC50,[1],"39.8 µM [falling, single point]"
COc1ccccc1NC(=O)NCCCN1CCN(c2ccc(F)cc2)CC1,AC50,[1],"10 µM [falling, partial curve]"
O=C(Nc1ccc2nc(-c3cccs3)c(-c3cccs3)nc2c1)N1CCOCC1,AC50,[1],"7.94 µM [falling, partial curve]"
CC(=O)c1ccc(NC(=O)Cn2nc(C(F)(F)F)c3c2CCC3)cc1,AC50,[1],"15.8 µM [falling, partial curve]"
Cc1ccc(CSc2c(C)cnc3c2c(=O)n(C)c(=O)n3C)cc1,AC50,[1],"1 µM [falling, single point]"
O=C(CCn1c(=O)oc2ccccc21)N1CCN(C(c2ccccc2)c2ccccc2)CC1,AC50,[1],"20 µM [falling, partial curve]"
CCOC(=O)C1=C(CN2CCN(c3ccc(Cl)cc3)CC2)NC(=O)NC1c1ccc(OC)cc1 (stereo unspecified),AC50,[1],"10 µM [falling, partial curve]"
COc1cccc2sc(NC(=O)c3ccc4c(c3)OCCO4)nc12,AC50,[1],"2 µM [falling, partial curve]"
CCCNC(=O)NC(=O)COC(=O)c1ccc(OC)c(S(=O)(=O)N2CCCc3ccccc32)c1,AC50,[1],"31.6 µM [falling, partial curve]"
CCCc1ccc(-c2ccc(F)c(N)c2)nc1,AC50,[1],"12.6 µM [falling, partial curve]"
Cc1ccc(Cl)cc1N1CCN(C(=O)Cn2cnc3onc(-c4ccc(F)cc4)c3c2=O)CC1,AC50,[1],"7.94 µM [falling, partial curve]"
COc1ccc(-c2cc3nc(C)c(CCC(=O)NCc4ccco4)c(C)n3n2)c(OC)c1,AC50,[1],"0.251 µM [falling, full curve]"
Cc1ccc2nc(-c3ccc(NC(=O)Cc4ccccc4)cc3)sc2c1,AC50,[1],"7.94 µM [rising, partial curve]"
COC(=O)c1ccc(CSc2ncnc3c2oc2ccccc23)o1,AC50,[1],"1.26 µM [falling, full curve, poor fit]"
COc1ccc(C(=O)CSc2nnc(COc3ccccc3)n2Cc2ccco2)cc1,AC50,[1],"10 µM [falling, partial curve]"
CS(=O)(=O)N1CCc2cc(-c3csc(NC(=O)Cc4cccs4)n3)ccc21,AC50,[1],"15.8 µM [falling, partial curve]"
C=CCn1c(-c2ccc(OC)c(OC)c2)cs/c1=N\c1ccccn1,AC50,[1],"15.8 µM [falling, partial curve]"
COc1cc(NC(=O)c2ccc(COc3ccccc3Br)o2)cc(OC)c1OC,AC50,[1],"3.98 µM [falling, full curve]"
CC(C)(C)c1cnnn1-c1ccc(NC(=O)c2ccc(Br)o2)cc1,AC50,[1],"3.98 µM [falling, full curve, poor fit]"
Cc1ccc(CNC(=O)CCNS(=O)(=O)c2ccc3c(c2)oc(=O)n3C)cc1,AC50,[1],"3.16 µM [falling, full curve, poor fit]"

# Two neighbouring records out of the list so far:
smiles,measurement,setting,value
Cc1ccc(C(=O)N(Cc2ccco2)Cc2sccc2C)cc1,AC50,[1],"25.1 µM [falling, partial curve]"
O=C(COc1ccccc1F)Nc1ccccc1C(=O)OCc1cc(=O)n2nc(C3CC3)sc2n1,AC50,[1],"3.98 µM [falling, full curve]"
